PubChem BioAssay AID651640 (Broad Institute, 2012)
“And” between values parts separate entries of the source, which are not always exact repeats. Equal values may be shown once. Out of some 350,000 compounds screened, about 6,000 (1.7%) were called active. This list was built around the results that the source calls inconclusive (neither active nor inactive); the mix of calls is not that of the screen. Cut-off read from the data, not from the text of the source: active = CPE inhibition above about 20% (passing the limit was not always enough); inconclusive = no clear call, values can overlap the other calls; tested in BHK-21 cells.

Assay: protection of cells from dengue 2 killing – plate reader, single concentration, primary screen (AID 651640);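 note: 0% = median of neutral control wells and 100% = median of positive control wells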
Settings: DENV2-infected cells, cytopathic effect rescue, at 9.99 µM, hits give high values

SMILES	CPE inhibition
C[C@@H]1COC(=O)[C@@H](CC(=O)OC(C)(C)C)C/C=C\C[C@H](CC(=O)NCCO)C(=O)N1	inconclusive: 26.9%
C[C@@H]1CN([C@H](C)CO)S(=O)(=O)c2ccc(C#CC3(O)CCCC3)cc2O[C@@H]1CN(C)C	inconclusive: 21.2%
COc1ccc(NC(=O)Nc2ccc3c(c2)[C@@H]2C[C@@H](CC(=O)NCc4ccccn4)O[C@H](CO)[C@@H]2O3)cc1	inactive: 3.19%
O=S(=O)(/N=C(/NC(=S)Nc1ccccc1)c1ccccc1)c1ccc(Cl)cc1	inactive: 4.39%
O=S(=O)(O)c1cc(O)c2cc(Nc3ccccc3)ccc2c1	inactive: -1.77%
C[C@H](NC(=O)C1CCN(S(=O)(=O)c2ccccc2)CC1)C(=O)NCc1cccnc1	active: 37.3%
COc1ccc(C2OC(=O)Cc3cc(OC)c(OC)cc32)cc1 (configuration not stated)	inactive: 0.578%
CN1CCN(CCNC(=O)Nc2ccc(Cl)cc2)CC1	inconclusive: 44.5%
CO[C@H]1CC[C@H]2CCOc3c(C#N)cccc3C(=O)N(C)[C@H](C)C(=O)N(C)C[C@H]1O2	inconclusive: 36.2%
C[C@H](CO)N1C[C@H](C)[C@@H](CN(C)S(=O)(=O)c2cccs2)OCCCC[C@H](C)Oc2ccc(NS(=O)(=O)c3ccccc3)cc2C1=O	inactive: -5.76%
CC(C)(C)[C@H]1C=C(C(=O)N2CCN(Cc3ccc4c(c3)OCO4)CC2)O[C@@H](OCCCCO)C1	inactive: 7.53% and inactive: -7.38%
COc1ccc(Nc2oc(-c3ccccc3F)nc2C#N)cc1	inconclusive: 25.1%
COc1ccc(CCNC(=O)C2CCN(C(=O)c3cccc(Cl)c3)CC2)cc1OC	inconclusive: 29.9%
C[C@@H]1CCCCO[C@@H](CN(C)CC2CCCCC2)[C@H](C)CN([C@@H](C)CO)C(=O)c2cc(NC(=O)Nc3ccccc3)ccc2O1	inactive: -21%
C[C@@H]1CN([C@@H](C)CO)C(=O)c2cc(NC(=O)Nc3cccc4ccccc34)ccc2O[C@@H]1CN(C)Cc1ccc(C(=O)Nc2ccccc2N)cc1	inconclusive: 23.4%
COCCCNc1nc(-c2ccc(Cl)cc2)nc2ccccc12	inconclusive: 23.5%
CCOC(=O)CN1C(=O)N[C@@H](c2cccc(F)c2)C(C(=O)OC)=C1C	inconclusive: 35.9%
COc1cccc(NC(=O)COC(=O)c2nc(Cl)ccc2Cl)c1	inconclusive: 31.1%
C[C@@H]1COC(=O)[C@H](Cc2ccc(F)cc2)C/C=C\C[C@@H](CC(=O)N[C@H](CO)Cc2ccccc2)C(=O)N1	active: 40.8%
CCOC(=O)C1(C)CCCCN1C(=O)c1ccoc1 (configuration not stated)	inconclusive: 45.5%
C/C(=N\NC(=O)C1CC1c1ccccc1)c1cccs1 (configuration not stated)	inconclusive: 26%
COc1ccc(C2C(C(=O)c3cccs3)=C(O)C(=O)N2c2cccc(C)n2)cc1 (configuration not stated)	inactive: 2.37%
C/C(=N\NC(=O)c1nnn(-c2nonc2N)c1-c1ccccc1)c1cccnc1	active: 96.4%
O=C(NCCS(=O)(=O)N1CCN(c2ccccc2)CC1)c1ccc2c(c1)OCO2	inconclusive: 23.1%

Given bar-delimited: entries from further up
SMILES | CPE inhibition
C[C@@H]1CN([C@H](C)CO)S(=O)(=O)c2ccc(C#CC3(O)CCCC3)cc2O[C@@H]1CN(C)C | inconclusive: 21.2%
CCOC(=O)C1(C)CCCCN1C(=O)c1ccoc1 (configuration not stated) | inconclusive: 45.5%
C/C(=N\NC(=O)c1nnn(-c2nonc2N)c1-c1ccccc1)c1cccnc1 | active: 96.4%

The listing continues:

SMILES	CPE inhibition
CS(=O)(=O)c1ccccc1C(=O)Nc1ccc(-c2nc3ccccc3o2)cc1	inconclusive: 23.9%
CCOC(=O)C1=C(C)N(C[C@@H]2CC[C@@H](Cc3ccc(-c4ccccc4)cc3)O2)C(=O)NC1c1ccc([N+](=O)[O-])cc1 (some centres not stated)	active: 49.3%
O=C(COC(=O)Cc1ccc(Br)cc1)NCC1CCCCC1	inconclusive: 33.8%
O=C(Cc1ccccc1)N[C@H]1CC[C@H](CC(=O)N2CCCCC2)O[C@H]1CO	inactive: -1.51%
Cc1ccc(C(=O)Nc2c(C)cc(C)c3cccnc23)cc1	inactive: 0.969%
C[C@@H]1CN([C@H](C)CO)C(=O)c2cc(NC(=O)Nc3ccc(C(F)(F)F)cc3)ccc2O[C@H]1CN(C)Cc1ccc(C(=O)O)cc1	inconclusive: 68.4%
Cc1cc(C)c(NC(=O)Cn2nnc(C(=O)Nc3ccc(F)cc3F)c2N)c(C)c1	inactive: 19.8%
Cn1c(=NC(=O)CS(=O)(=O)c2ccccc2)sc2cc(F)ccc21	inconclusive: 22.8%
COc1ccccc1N1CC(C(=O)OCC(=O)c2c(N)n(C)c(=O)n(C)c2=O)CC1=O (configuration not stated)	inconclusive: 45.7%
O=C(C[C@@H]1C[C@H]2c3cc(NC(=O)NC4CCCCC4)ccc3O[C@H]2[C@@H](CO)O1)NCCc1ccccc1	inconclusive: 32.8%
COc1ccccc1CN1CC(C(=O)N(C)Cc2ccncc2C)CCC1=O (configuration not stated)	inconclusive: 23.2%
O=C(c1ccc(F)cc1)N1CC(=O)N2[C@H](CO)[C@H](c3ccc(/C=C/c4ccccc4)cc3)[C@@H]2C1	inconclusive: 21.5%
Cc1ccc(CNC(=O)c2cccc3c2C(=O)c2ccc(N4CCOCC4)cc2S3(=O)=O)cc1	active: 31.1%
Cc1nc2scc(-c3ccccc3)c2c(=O)n1N=C1C=CC(=O)C=C1	inconclusive: 23%
CCOC(=O)c1sc(NC(=O)CCC(=O)O)nc1C	inconclusive: 25.7%
CC(=O)N1CC2(C1)[C@@H](c1ccccc1)[C@@H](CO)N2CC1CCOCC1	active: 21.8%
C[C@H]1CN([C@@H](C)CO)C(=O)CCCn2cc(nn2)CO[C@H]1CN(C)S(=O)(=O)c1ccc(Oc2ccccc2)nc1	inactive: -3.36%
CC(=O)OCC1OC(COC(C)=O)(c2ccc(C)cc2)C(OC(C)=O)C1OC(C)=O (configuration not stated)	inactive: 1.87%
CCCCC1(c2ccc(F)cc2)NC(=O)N(CC(=O)N2CCN(C(=O)c3ccco3)CC2)C1=O (configuration not stated)	inconclusive: 25.7%
CN(C)c1ccc(C=c2c3ccccc3n3c2c2ccccc2[n+]3C)cc1	inactive: -5.35%
CC(=O)N(C)C[C@@H]1Oc2ncc(C3=CCCC3)cc2C(=O)N([C@H](C)CO)C[C@H]1C	inactive: -10.6%
CNC[C@@H]1OCCCC[C@H](C)Oc2ccc(NC(=O)c3ccccc3)cc2C(=O)N([C@H](C)CO)C[C@H]1C	inconclusive: 43.6%
CC(C)(C)c1ccc(C(=O)/C(C#N)=C/c2cccs2)cc1	inconclusive: 24.3%
